Experiment: in vitro
Conditions: human, Caco-2, pH 7.4

CC(C)NCC(O)COc1ccc(CC(N)=O)cc1 (centres unmarked) [Atenolol]
Papp A→B: 1.3 ×10⁻⁶ cm/s | Papp B→A: 1.05 ×10⁻⁶ cm/s
